Data as given in PubChem BioAssay AID504764 (Drosophila RNAi Screening Center, 2011)
The screen tested about 22,000 reagents; below is a random part of those that have a named target and a result. Over the whole deposit, 403 (1.9%) got an active call. 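Unnormalised raw counts per well; ratio z-scores behind the hit calls and whether each hit raises or lowers signal are not deposited.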 Not given: the amount of reagent.

- Test: 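Genome-wide screen for regulators of Notch-driven gene expression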 (primary screen)
- System: Drosophila Kc167 cells
- Reagents: long dsRNA against Drosophila genes
- Duration: about 5 days (4 days dsRNA, then 24 h after transfection)
- Conditions: transfection of constitutively active membrane-tethered Notch lacking the extracellular domain, read 24 h later
- Measured: 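Light from a Notch-responsive E(spl)m3 luciferase reporter under active Notch, with control-promoter and no-Notch reporter wells to normalise; raw counts from paired wells a and b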
- Scale: induced reporter light, run 1, well a and induced reporter light, run 1, well b: higher = more light from the Notch target reporter with active Notch; control promoter light, run 1, well a and control promoter light, run 1, well b: higher = more light from the viral control promoter (cell number, transfection, viability); uninduced reporter light, run 1, well a: higher = more light from the Notch target reporter without active Notch
- Call rule: 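Hit if the duplicate-averaged log2 ratio of induced to control-promoter light gives a plate-wise z beyond ±2, or induced to uninduced beyond ±1.8; weak-control or discordant-duplicate wells dropped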
- Meaning of the calls: active = modifier hit (raised or lowered Notch signal); inactive = not a hit

Knock-down of elg1 [DRSC10229] resulted in: induced reporter light, run 1, well a = 1.21e5; induced reporter light, run 1, well b = 1.41e5; control promoter light, run 1, well a = 84420; control promoter light, run 1, well b = 94425; uninduced reporter light, run 1, well a = 8010; inactive. Depletion of ogre [DRSC18809] came out at: induced reporter light, run 1, well a = 2.12e5; induced reporter light, run 1, well b = 2.01e5; control promoter light, run 1, well a = 2.33e5; control promoter light, run 1, well b = 2.12e5; uninduced reporter light, run 1, well a = 14705; inactive. After knock-down of ssp [DRSC10252] the results were induced reporter light, run 1, well a = 1.05e5; induced reporter light, run 1, well b = 1.20e5; control promoter light, run 1, well a = 92780; control promoter light, run 1, well b = 43155; uninduced reporter light, run 1, well a = 10632; inactive. With knock-down of CG31140 [DRSC13649] the results were induced reporter light, run 1, well a = 1.72e5; induced reporter light, run 1, well b = 1.63e5; control promoter light, run 1, well a = 1.71e5; control promoter light, run 1, well b = 2.49e5; uninduced reporter light, run 1, well a = 15405; inactive. After knock-down of CG31140 [DRSC14603], the screen gave induced reporter light, run 1, well a = 1.70e5; induced reporter light, run 1, well b = 1.74e5; control promoter light, run 1, well a = 2.32e5; control promoter light, run 1, well b = 2.44e5; uninduced reporter light, run 1, well a = 14780; inactive. With knock-down of CG31140 [DRSC15904], the screen gave induced reporter light, run 1, well a = 1.61e5; induced reporter light, run 1, well b = 1.60e5; control promoter light, run 1, well a = 1.73e5; control promoter light, run 1, well b = 1.84e5; uninduced reporter light, run 1, well a = 10665; inactive.

Depletion of CG1354 [DRSC17902] came out at: induced reporter light, run 1, well a = 1.12e5; induced reporter light, run 1, well b = 1.09e5; control promoter light, run 1, well a = 2.09e5; control promoter light, run 1, well b = 1.66e5; uninduced reporter light, run 1, well a = 8140; inactive. Silencing of tj [DRSC02011] gave: induced reporter light, run 1, well a = 31455; induced reporter light, run 1, well b = 28775; control promoter light, run 1, well a = 42800; control promoter light, run 1, well b = 74705; uninduced reporter light, run 1, well a = 2430; inactive. CG14106 [DRSC10109] gave induced reporter light, run 1, well a = 74575; induced reporter light, run 1, well b = 64270; control promoter light, run 1, well a = 93050; control promoter light, run 1, well b = 77140; uninduced reporter light, run 1, well a = 5915; inactive. CG42346 [DRSC20622] showed induced reporter light, run 1, well a = 94075; induced reporter light, run 1, well b = 99380; control promoter light, run 1, well a = 1.30e5; control promoter light, run 1, well b = 1.58e5; uninduced reporter light, run 1, well a = 10570; inactive. Knock-down of CG42346 [DRSC20644] gave: induced reporter light, run 1, well a = 1.15e5; induced reporter light, run 1, well b = 1.09e5; control promoter light, run 1, well a = 1.51e5; control promoter light, run 1, well b = 1.64e5; uninduced reporter light, run 1, well a = 9950; inactive. CG42570 [DRSC09391] scored induced reporter light, run 1, well a = 1.67e5; induced reporter light, run 1, well b = 2.24e5; control promoter light, run 1, well a = 2.17e5; control promoter light, run 1, well b = 2.58e5; uninduced reporter light, run 1, well a = 16500; inactive.

2 entries from above, ordered by “uninduced reporter light, run 1, well a”, low to high.
CG1354 [DRSC17902] | induced reporter light, run 1, well a = 1.12e5; induced reporter light, run 1, well b = 1.09e5; control promoter light, run 1, well a = 2.09e5; control promoter light, run 1, well b = 1.66e5; uninduced reporter light, run 1, well a = 8140; activity call = inactive
CG31140 [DRSC15904] | induced reporter light, run 1, well a = 1.61e5; induced reporter light, run 1, well b = 1.60e5; control promoter light, run 1, well a = 1.73e5; control promoter light, run 1, well b = 1.84e5; uninduced reporter light, run 1, well a = 10665; activity call = inactive
